These are yes or no findings as the source states them, for the method shown. Binding seen in cells or lysates may run through a third protein. Here binding means that the protein was enriched with, or labelled near, the bait; the list need not be complete. No binding means not detected with the bait.
B1: Eukaryotic translation initiation factor 3 subunit G (protein, UniProt F4J6A1 1-321)
chain: MTIDSQQKTSKFRWGEMDEDEDLDFLLPPKQVIGPDENGLKTTIEYKFNDEENKVKITTRTRVRKLASARLNKRAMERRNWPKFGDAANEEAGSHLTMVSTEEILLERPRAPGDQLANHMLASIPEYELKCALTFVAANCTKADESKATGDGLSQLGKGGAVLMVCRICHKKGDHWTSKCPYKDLAAPTDVFIDKPPTGESSTMSAAPGTGKAAYVPPSMRAGADRSAVGSDMRRRNDENSVRVTNLSEDTREPDLMELFHPFGAVTRVYVAIDQKTGVSRGFGFVNFVSREDAQRAINKLNGYGYDNLILRVEWATPRPT
B2: Eukaryotic translation initiation factor 3 subunit A (protein, UniProt Q9LD55 1-987)
chain: MANFAKPENALKRADELINVGQKQDALQALHDLITSKRYRAWQKPLEKIMFKYLDLCVDLKRGRFAKDGLIQYRIVCQQVNVSSLEEVIKHFLHLATDKAEQARSQADALEEALDVDDLEADRKPEDLQLSIVSGEKGKDRSDRELVTPWFKFLWETYRTVLEILRNNSKLEALYAMTAHKAFQFCKQYKRTTEFRRLCEIIRNHLANLNKYRDQRDRPDLSAPESLQLYLDTRFDQLKVATELGLWQEAFRSVEDIYGLMCMVKKTPKSSLLMVYYSKLTEIFWISSSHLYHAYAWFKLFSLQKNFNKNLSQKDLQLIASSVVLAALSIPPFDRAQSASHMELENEKERNLRMANLIGFNLEPKFEGKDMLSRSALLSELVSKGVLSCASQEVKDLFHVLEHEFHPLDLGSKIQPLLEKISKSGGKLSSAPSLPEVQLSQYVPSLEKLATLRLLQQVSKIYQTIRIESLSQLVPFFQFSEVEKISVDAVKNNFVAMKVDHMKGVVIFGNLGIESDGLRDHLAVFAESLSKVRAMLYPVPSKASKLAGVIPNLADTVEKEHKRLLARKSIIEKRKEDQERQQLEMEREEEQKRLKLQKLTEEAEQKRLAAELAERRKQRILREIEEKELEEAQALLEETEKRMKKGKKKPLLDGEKVTKQSVKERALTEQLKERQEMEKKLQKLAKTMDYLERAKREEAAPLIEAAYQRRLVEEREFYEREQQREVELSKERHESDLKEKNRLSRMLGNKEIFQAQVISRRQAEFDRIRTEREERISKIIREKKQERDIKRKQIYYLKIEEERIRKLQEEEEARKQEEAERLKKVEAERKANLDKAFEKQRQREIELEEKSRREREELLRGTNAPPARLAEPTVTPVGTTAPAAAAAAAGAPAAPYVPKWKRQTTEVSGPSAPTSSETDRRSNRGPPPGDDHWGSNRGAAQNTDRWTSNRERSGPPAEGGDRWGSGPRGSDDRRSTFGSSRPRPTQR
B3: 30S ribosomal protein S9 (protein, UniProt Q9XJ27 53-208)
chain: TVSAPPEEEEIVELKKYVKSRLPGGFAAQKIIGTGRRKCAIARVVLQEGTGKVIINYRDAKEYLQGNPLWLQYVKVPLVTLGYENSYDIFVKAHGGGLSGQAQAITLGVARALLKVSADHRSPLKKEGLLTRDARVVERKKAGLKKARKAPQFSKR
B4: AtCul3a, endogenous (protein, UniProt Q9ZVH4 1-732)
chain: MSNQKKRNFQIEAFKHRVVVDPKYADKTWQILERAIHQIYNQDASGLSFEELYRNAYNMVLHKFGEKLYTGFIATMTSHLKEKSKLIEAAQGGSFLEELNKKWNEHNKALEMIRDILMYMDRTYIESTKKTHVHPMGLNLWRDNVVHFTKIHTRLLNTLLDLVQKERIGEVIDRGLMRNVIKMFMDLGESVYQEDFEKPFLDASSEFYKVESQEFIESCDCGDYLKKSEKRLTEEIERVAHYLDAKSEEKITSVVEKEMIANHMQRLVHMENSGLVNMLLNDKYEDLGRMYNLFRRVTNGLVTVRDVMTSHLREMGKQLVTDPEKSKDPVEFVQRLLDERDKYDKIINTAFGNDKTFQNALNSSFEYFINLNARSPEFISLFVDDKLRKGLKGITDVDVEVILDKVMMLFRYLQEKDVFEKYYKQHLAKRLLSGKTVSDDAERSLIVKLKTECGYQFTSKLEGMFTDMKTSEDTMRGFYGSHPELSEGPTLIVQVLTTGSWPTQPAVPCNLPAEVSVLCEKFRSYYLGTHTGRRLSWQTNMGTADIKAIFGKGQKHELNVSTFQMCVLMLFNNSDRLSYKEIEQATEIPAADLKRCLQSLACVKGKNVIKKEPMSKDIGEEDLFVVNDKFTSKFYKVKIGTVVAQKETEPEKQETRQRVEEDRKPQIEAAIVRIMKSRKILDHNNIIAEVTKQLQPRFLANPTEIKKRIESLIERDFLERDSTDRKLYRYLA
B5: AtCul3b, endogenous (protein, UniProt Q9C9L0 1-732)
chain: MSNQKKRNFQIEAFKQRVVVDPKYADKTWKILEHAIHEIYNHNASGLSFEELYRNAYNMVLHKYGDKLYTGLVTTMTFHLKEICKSIEEAQGGAFLELLNRKWNDHNKALQMIRDILMYMDRTYVSTTKKTHVHELGLHLWRDNVVYSSKIQTRLLNTLLDLVHKERTGEVIDRVLMRNVIKMFMDLGESVYQDDFEKPFLEASAEFYKVESMEFIESCDCGEYLKKAEKPLVEEVERVVNYLDAKSEAKITSVVEREMIANHVQRLVHMENSGLVNMLLNDKYEDMGRMYSLFRRVANGLVTVRDVMTLHLREMGKQLVTDPEKSKDPVEFVQRLLDERDKYDRIINMAFNNDKTFQNALNSSFEYFVNLNTRSPEFISLFVDDKLRKGLKGVGEEDVDLILDKVMMLFRYLQEKDVFEKYYKQHLAKRLLSGKTVSDDAERNLIVKLKTECGYQFTSKLEGMFTDMKTSHDTLLGFYNSHPELSEGPTLVVQVLTTGSWPTQPTIQCNLPAEVSVLCEKFRSYYLGTHTGRRLSWQTNMGTADIKAVFGKGQKHELNVSTFQMCVLMLFNNSDRLSYKEIEQATEIPTPDLKRCLQSMACVKGKNVLRKEPMSKEIAEEDWFVVNDRFASKFYKVKIGTVVAQKETEPEKQETRQRVEEDRKPQIEAAIVRIMKSRRVLDHNNIIAEVTKQLQTRFLANPTEIKKRIESLIERDFLERDNTDRKLYRYLA

biological target: TaMAB2-TAP (Triticum aestivum (wheat)); assay: affinity purification with mass spectrometry; tandem affinity purification (IgG-Sepharose, AcTEV elution, calmodulin-agarose) of TAP-tagged bait from crude extracts of Arabidopsis cell suspension (three replicates) or 12-day old seedlings; 150 mM NaCl, 0.1% Nonidet P-40, 4°C; LC-MS/MS; SerRS-TAP as control bait

Question: For B1, which binding is on record?
Answer: binds

Question: Which binding does the source give for B2 here?
Answer: binds

Question: For B3, which binding is on record?
Answer: binds

Question: How did the binding turn out when B4 was run?
Answer: no binding

Question: Which binding does the source give for B5 here?
Answer: no binding

biological target: SerRS-TAP (Arabidopsis thaliana seryl-tRNA synthetase) (Arabidopsis thaliana); assay: as above

Question: For B1, which binding is on record?
Answer: no binding

Question: Which binding does the source give for B2 here?
Answer: no binding

Reference: article PMC6883508
